# Measured values taken from the supplement of paper PMC12067093, “Discovery and optimisation of a covalent ligand for TRIM25 and its application to targeted protein ubiquitination” (Chemical Science, 2025).
# Chains of the proteins cited; added tags and fusions are not shown. Lines headed by an entry give the natural chain unless they say otherwise; changes in a name come on top.
# UniProt P04075: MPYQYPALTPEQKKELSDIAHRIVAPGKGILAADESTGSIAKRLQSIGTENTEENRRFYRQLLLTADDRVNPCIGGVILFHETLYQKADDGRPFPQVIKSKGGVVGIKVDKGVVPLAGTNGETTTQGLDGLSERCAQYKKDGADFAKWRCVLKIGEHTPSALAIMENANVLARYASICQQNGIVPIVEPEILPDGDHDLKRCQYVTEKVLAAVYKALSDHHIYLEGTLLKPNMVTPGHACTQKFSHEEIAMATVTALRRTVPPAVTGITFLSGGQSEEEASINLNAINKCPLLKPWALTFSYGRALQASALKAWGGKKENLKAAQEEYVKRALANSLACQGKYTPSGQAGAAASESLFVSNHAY
# UniProt P54886: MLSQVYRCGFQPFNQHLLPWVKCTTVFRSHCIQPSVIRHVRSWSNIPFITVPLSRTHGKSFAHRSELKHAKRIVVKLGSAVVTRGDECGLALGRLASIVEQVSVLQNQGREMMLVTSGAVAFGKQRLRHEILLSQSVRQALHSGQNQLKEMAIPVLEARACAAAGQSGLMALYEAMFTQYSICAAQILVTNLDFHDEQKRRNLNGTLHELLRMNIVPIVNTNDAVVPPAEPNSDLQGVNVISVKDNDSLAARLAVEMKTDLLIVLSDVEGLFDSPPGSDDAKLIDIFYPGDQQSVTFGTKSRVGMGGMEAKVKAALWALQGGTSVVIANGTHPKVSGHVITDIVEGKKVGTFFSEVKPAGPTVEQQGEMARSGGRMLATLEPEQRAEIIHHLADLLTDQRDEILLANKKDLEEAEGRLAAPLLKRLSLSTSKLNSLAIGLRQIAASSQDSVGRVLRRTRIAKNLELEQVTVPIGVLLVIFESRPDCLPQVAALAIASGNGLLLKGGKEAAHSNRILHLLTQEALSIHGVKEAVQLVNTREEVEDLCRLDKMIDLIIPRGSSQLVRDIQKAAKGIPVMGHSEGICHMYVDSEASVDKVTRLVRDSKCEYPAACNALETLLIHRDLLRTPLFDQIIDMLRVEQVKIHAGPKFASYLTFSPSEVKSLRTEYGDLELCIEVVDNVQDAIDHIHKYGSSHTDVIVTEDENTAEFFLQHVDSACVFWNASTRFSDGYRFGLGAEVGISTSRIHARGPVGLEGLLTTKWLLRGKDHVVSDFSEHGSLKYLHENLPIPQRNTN
# UniProt Q02040: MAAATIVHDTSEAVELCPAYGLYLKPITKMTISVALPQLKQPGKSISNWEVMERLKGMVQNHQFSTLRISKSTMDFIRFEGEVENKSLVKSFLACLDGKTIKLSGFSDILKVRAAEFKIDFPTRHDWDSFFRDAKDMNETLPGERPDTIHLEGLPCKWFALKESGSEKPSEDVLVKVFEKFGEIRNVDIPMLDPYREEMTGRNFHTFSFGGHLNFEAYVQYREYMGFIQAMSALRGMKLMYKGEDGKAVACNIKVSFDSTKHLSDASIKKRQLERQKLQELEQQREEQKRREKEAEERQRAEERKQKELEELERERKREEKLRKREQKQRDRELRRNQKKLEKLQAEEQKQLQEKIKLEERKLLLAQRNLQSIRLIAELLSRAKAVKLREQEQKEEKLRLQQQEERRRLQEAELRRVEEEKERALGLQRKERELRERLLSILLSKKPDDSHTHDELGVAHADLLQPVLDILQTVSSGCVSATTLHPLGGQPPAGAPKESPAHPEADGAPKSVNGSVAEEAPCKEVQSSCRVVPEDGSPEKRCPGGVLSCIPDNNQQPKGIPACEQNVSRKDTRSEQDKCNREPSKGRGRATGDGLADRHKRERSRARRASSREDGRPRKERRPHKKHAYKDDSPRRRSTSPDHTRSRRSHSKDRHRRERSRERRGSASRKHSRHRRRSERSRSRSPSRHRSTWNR
# UniProt P13716: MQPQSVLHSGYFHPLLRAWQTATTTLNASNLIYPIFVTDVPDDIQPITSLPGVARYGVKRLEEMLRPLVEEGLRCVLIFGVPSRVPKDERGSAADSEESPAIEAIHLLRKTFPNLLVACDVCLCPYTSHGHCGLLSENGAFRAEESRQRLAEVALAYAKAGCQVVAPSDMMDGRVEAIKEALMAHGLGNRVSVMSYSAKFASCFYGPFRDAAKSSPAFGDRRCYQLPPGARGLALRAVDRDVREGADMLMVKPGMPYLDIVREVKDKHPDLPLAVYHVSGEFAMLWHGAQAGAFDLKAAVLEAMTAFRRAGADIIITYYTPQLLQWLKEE
# UniProt Q92667: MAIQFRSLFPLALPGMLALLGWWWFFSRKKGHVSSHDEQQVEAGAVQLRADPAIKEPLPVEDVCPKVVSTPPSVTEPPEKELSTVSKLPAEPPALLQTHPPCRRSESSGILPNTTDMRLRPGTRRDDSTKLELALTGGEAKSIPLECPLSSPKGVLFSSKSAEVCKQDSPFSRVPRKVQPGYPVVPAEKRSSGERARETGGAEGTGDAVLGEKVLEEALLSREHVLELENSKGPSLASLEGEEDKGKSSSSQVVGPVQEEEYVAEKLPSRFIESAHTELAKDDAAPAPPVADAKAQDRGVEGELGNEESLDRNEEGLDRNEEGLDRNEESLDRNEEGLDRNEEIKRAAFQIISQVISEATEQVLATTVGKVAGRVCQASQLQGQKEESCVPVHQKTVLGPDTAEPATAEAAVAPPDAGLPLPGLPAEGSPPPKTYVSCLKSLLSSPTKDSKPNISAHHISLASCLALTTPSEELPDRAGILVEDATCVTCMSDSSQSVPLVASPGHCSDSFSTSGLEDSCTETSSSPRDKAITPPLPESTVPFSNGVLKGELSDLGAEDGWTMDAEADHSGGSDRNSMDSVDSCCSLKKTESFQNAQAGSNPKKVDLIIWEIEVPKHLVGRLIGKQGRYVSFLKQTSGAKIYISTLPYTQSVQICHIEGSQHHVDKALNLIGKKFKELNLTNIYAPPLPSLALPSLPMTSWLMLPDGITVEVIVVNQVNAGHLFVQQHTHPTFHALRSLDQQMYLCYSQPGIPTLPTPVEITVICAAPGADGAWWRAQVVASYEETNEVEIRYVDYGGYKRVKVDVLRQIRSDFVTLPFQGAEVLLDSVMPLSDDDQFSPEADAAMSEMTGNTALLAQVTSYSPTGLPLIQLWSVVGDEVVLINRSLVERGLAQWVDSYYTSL
# UniProt O43865, whole entry, looked up: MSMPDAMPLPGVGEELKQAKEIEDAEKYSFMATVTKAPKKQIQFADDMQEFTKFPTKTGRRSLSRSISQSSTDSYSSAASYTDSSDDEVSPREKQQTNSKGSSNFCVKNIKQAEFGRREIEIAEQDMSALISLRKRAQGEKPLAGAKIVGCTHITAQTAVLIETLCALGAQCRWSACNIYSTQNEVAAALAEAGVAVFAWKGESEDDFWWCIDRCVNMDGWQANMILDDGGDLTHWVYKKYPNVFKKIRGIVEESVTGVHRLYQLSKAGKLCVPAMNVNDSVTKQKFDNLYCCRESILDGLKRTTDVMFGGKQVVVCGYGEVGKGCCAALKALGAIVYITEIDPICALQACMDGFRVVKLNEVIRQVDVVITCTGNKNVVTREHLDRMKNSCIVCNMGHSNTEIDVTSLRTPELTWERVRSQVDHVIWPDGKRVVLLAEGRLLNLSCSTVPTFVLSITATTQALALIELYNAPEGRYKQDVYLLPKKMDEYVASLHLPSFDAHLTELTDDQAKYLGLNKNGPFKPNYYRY
# UniProt P49189: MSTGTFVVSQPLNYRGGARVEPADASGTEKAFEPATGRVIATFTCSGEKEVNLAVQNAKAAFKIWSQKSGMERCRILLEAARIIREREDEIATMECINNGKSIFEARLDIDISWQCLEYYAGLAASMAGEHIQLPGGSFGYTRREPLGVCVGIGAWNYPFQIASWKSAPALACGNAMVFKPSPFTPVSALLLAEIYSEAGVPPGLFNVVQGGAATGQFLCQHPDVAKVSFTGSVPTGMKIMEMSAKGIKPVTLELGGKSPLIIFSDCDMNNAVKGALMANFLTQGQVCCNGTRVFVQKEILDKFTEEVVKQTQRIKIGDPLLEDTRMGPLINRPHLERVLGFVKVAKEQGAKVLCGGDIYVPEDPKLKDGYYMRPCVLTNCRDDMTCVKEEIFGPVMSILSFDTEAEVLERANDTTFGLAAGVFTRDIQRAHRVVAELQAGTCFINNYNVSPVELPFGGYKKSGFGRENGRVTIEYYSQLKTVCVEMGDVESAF
# UniProt Q9ULX6: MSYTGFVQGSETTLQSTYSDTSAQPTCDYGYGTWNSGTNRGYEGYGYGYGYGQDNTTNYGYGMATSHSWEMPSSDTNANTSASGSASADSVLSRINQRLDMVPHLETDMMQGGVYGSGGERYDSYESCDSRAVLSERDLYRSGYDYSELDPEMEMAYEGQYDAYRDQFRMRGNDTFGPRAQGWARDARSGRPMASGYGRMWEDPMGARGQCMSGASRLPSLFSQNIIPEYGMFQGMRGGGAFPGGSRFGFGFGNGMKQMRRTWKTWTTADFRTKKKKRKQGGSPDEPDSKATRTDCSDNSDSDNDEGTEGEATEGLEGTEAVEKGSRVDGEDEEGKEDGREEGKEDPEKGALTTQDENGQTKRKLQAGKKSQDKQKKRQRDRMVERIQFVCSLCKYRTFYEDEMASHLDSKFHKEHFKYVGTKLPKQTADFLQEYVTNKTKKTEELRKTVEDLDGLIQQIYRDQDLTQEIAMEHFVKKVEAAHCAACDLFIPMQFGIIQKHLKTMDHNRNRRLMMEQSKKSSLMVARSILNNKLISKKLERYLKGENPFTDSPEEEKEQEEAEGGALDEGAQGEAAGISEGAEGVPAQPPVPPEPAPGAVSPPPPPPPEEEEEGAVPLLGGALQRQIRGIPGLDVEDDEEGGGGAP
# UniProt O95433, whole entry, looked up: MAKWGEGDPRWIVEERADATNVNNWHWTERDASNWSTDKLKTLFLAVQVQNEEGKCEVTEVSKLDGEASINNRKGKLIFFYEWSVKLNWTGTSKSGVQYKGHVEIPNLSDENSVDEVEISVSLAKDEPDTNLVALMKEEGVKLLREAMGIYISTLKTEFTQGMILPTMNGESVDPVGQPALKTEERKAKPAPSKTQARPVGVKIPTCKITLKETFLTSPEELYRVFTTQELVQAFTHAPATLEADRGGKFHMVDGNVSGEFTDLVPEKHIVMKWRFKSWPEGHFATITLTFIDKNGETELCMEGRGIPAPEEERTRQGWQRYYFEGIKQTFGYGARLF
# UniProt Q9UJX6, whole entry, looked up: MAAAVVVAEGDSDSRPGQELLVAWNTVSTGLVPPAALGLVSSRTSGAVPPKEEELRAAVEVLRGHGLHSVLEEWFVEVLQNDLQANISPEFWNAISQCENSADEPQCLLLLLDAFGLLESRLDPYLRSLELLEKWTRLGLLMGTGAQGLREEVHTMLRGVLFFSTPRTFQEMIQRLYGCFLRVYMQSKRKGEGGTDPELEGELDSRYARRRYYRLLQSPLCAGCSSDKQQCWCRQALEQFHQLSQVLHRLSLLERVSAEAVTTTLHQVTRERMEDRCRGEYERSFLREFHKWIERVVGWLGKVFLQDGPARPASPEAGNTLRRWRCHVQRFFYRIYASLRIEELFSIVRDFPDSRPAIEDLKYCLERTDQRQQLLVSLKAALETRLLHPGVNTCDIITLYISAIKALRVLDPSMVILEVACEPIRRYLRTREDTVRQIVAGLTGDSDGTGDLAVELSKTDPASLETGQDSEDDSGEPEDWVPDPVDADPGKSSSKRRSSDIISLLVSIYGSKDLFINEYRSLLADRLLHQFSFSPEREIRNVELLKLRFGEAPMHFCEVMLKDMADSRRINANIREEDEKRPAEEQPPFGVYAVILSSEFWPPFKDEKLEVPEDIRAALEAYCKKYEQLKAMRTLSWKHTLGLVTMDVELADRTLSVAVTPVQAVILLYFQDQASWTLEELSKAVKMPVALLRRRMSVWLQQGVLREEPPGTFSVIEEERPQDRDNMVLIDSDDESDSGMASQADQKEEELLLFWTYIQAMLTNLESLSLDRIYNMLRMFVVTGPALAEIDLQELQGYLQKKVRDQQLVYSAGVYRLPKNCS
# UniProt P13196: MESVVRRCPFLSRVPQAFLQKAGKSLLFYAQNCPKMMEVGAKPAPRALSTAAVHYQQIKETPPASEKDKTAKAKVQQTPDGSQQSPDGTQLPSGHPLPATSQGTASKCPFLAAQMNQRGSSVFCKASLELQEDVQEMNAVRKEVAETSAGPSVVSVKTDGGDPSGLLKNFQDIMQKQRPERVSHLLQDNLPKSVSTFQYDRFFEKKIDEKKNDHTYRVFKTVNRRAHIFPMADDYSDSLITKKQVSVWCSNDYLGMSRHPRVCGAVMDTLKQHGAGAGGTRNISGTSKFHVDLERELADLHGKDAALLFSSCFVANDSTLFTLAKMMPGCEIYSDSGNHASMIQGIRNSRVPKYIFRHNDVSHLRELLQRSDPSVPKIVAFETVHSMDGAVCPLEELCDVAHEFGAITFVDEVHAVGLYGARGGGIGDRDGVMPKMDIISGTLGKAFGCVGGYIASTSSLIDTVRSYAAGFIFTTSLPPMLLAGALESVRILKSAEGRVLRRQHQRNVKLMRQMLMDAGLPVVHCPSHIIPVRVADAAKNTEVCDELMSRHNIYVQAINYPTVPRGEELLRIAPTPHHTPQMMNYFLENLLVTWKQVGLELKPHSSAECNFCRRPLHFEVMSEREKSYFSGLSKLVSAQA
# The list shows a part of the results.
# Compound: Cc1cc(ccc1-c1ccccc1)C(=O)N1CCCN(CC1)C(=O)CCl [compound 10]
# Assay: probe-labelled cysteine peptide fold change vs DMSO (competition) (log2 fold change); higher = less target engagement (more negative = stronger competition)
# Details: THP-1, incubation time: 4 h
# 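Also: competitive profiling in live THP-1 cells: cysteine peptides tagged with an iodoacetamide desthiobiotin (IA-DTB) probe, intensity after compound treatment relative to DMSO-treated cells.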
Target,probe-labelled cysteine peptide fold change (10 µM),probe-labelled cysteine peptide fold change (50 µM)
ANKFY1_Q9P2R3_724_HGCDATCWGPGPGGCLQTLLHR (UniProt Q9P2R3),0.0967,0.124
ALDOA_P04075_73_QLLLTADDRVNPCIGGVILFHETLYQK (UniProt P04075),0.113,-0.0442
AK2_P54819_42_LAENFCVCHLATGDMLR (UniProt P54819),0.0799,0.141
ANKHD1_Q8IWZ3_213_SLAEACSDGDVNAVR (UniProt Q8IWZ3),0.295,0.212
AHNAK_Q09666_1900_LEGDLTGPSVGVEVPDVELECPDAK (UniProt Q09666),0.0744,0.0974
AMFR_Q9UKV5_364_KLPCGHLFHNSCLR (UniProt Q9UKV5),0.0577,-0.0323
ALDH16A1_Q8IZ83_249_VAFCGAPEEGR (UniProt Q8IZ83),-0.131,-0.421
AIMP1_Q12904_284_IWEQIQPDLHTNDECVATYK (UniProt Q12904),-0.256,0.333
ALDH18A1_P54886_546_EEVEDLCR (UniProt P54886),-0.122,0.165
ALDH7A1_P49419_522_STCTINYSK (UniProt P49419),0.00826,-0.164
AKR1B1_P15121_299+304_VCALLSCTSHK (UniProt P15121),-0.497,-2.06
AMACR_Q9UHK6_284+293_AEWCQIFDGTDACVTPVLTFEEVVHHDHNK (UniProt Q9UHK6),0.00265,-0.16
AKAP17A_Q02040_563_GIPACEQNVSR (UniProt Q02040),-0.268,-0.209
ALDH18A1_P54886_674_TEYGDLELCIEVVDNVQDAIDHIHK (UniProt P54886),0.112,0.171
ALAD_P13716_162_AGCQVVAPSDMMDGR (UniProt P13716),0.0174,0.0599
AKAP1_Q92667_64_EPLPVEDVCPK (UniProt Q92667),-0.161,0.347
AIFM1_O95831_256_CLIATGGTPR (UniProt O95831),0.288,0.0894
AHCYL1_O43865_215_CVNMDGWQANMILDDGGDLTHWVYKK (UniProt O43865),0.00395,-0.06
AIG1_Q9NVV5_6_MALVPCQVLR (UniProt Q9NVV5),-0.836,-1.35
AKAP17A_Q02040_95_SFLACLDGK (UniProt Q02040),0.0192,0.159
AHCY_P23526_113_GETDEEYLWCIEQTLYFK (UniProt P23526),0.213,0.204

Target,probe-labelled cysteine peptide fold change (10 µM),probe-labelled cysteine peptide fold change (50 µM)
AIMP2_Q13155_306_SCENLAPFNTALK (UniProt Q13155),0.0178,0.0757
AIDA_Q96BJ3_69_IATCLELR (UniProt Q96BJ3),-0.123,-0.606
AKAP8_O43823_484_KIEAAHCLACDMLIPAQPQLLQR (UniProt O43823),0.197,-0.111
AKAP2_Q9Y2D5_296_RAQQEQLLLQKQLQQQQQQPPSQLCTAPASSHER (UniProt Q9Y2D5),-0.361,-0.44
AHCY_P23526_421_QAQYLGMSCDGPFKPDHYR (UniProt P23526),-0.0527,-0.129
AIFM1_O95831_317_SITIIGGGFLGSELACALGR (UniProt O95831),-0.00971,0.0912
AKAP9_Q99996_2125_CSELLLSK (UniProt Q99996),0.132,0.0128
AKAP17A_Q02040_17_AAATIVHDTSEAVELCPAYGLYLK (UniProt Q02040),0.304,0.379
ANGEL2_Q5VTE6_305_IPYAACPAICVANTHLLYNPR (UniProt Q5VTE6),0.0352,0.0303
AKAP1_Q92667_655_IYISTLPYTQSVQICHIEGSQHHVDK (UniProt Q92667),0.168,0.539
ANK2_Q01484_60_GGIDINTCNQNGLNALHLAAK (UniProt Q01484),-0.0192,0.00171
AKR1A1_P14550_46_HIDCAAIYGNEPEIGEALK (UniProt P14550),0.0263,0.0157
ALDH9A1_P49189_443_VVAELQAGTCFINNYNVSPVELPFGGYKK (UniProt P49189),0.0937,0.103
ALDOA_P04075_240_ALSDHHIYLEGTLLKPNMVTPGHACTQK (UniProt P04075),0.021,-0.182
AKAP8L_Q9ULX6_128_YDSYESCDSR (UniProt Q9ULX6),-0.217,-0.44
AHSA1_O95433_301_NGETELCMEGR (UniProt O95433),-0.0489,0.249
ALDH9A1_P49189_484_TVCVEMGDVESAF (UniProt P49189),-0.0957,-0.0819
AMOT_Q4VCS5_741_CLDMEGR (UniProt Q4VCS5),0.131,-0.346
ANAPC10_Q9UM13_78_TLCIYADYK (UniProt Q9UM13),0.119,0.486
ALDOA_P04075_290_CPLLKPWALTFSYGR (UniProt P04075),-0.405,-0.644
ANKHD1_Q8IWZ3_1965_QLFACVPK (UniProt Q8IWZ3),-0.214,-0.155

Target,probe-labelled cysteine peptide fold change (10 µM),probe-labelled cysteine peptide fold change (50 µM)
AGO2_Q9UKV8_787_FSSDELQILTYQLCHTYVR (UniProt Q9UKV8),0.36,0.31
AGPS_O00116_58_EALSTNECK (UniProt O00116),-0.66,-0.269
ALAD_P13716_162_AGCQVVAPSDMMDGRVEAIK (UniProt P13716),-0.0543,-0.357
ALKBH5_Q6P6C2_100_LFSQDECAK (UniProt Q6P6C2),-0.000108,0.012
ALDH16A1_Q8IZ83_39_CLGHYVNGK (UniProt Q8IZ83),-0.0412,-0.0466
ANAPC2_Q9UJX6_394_LLHPGVNTCDIITLYISAIK (UniProt Q9UJX6),-0.231,-0.417
AGPAT3_Q9NRZ7_254_KYEADMCVR (UniProt Q9NRZ7),-0.189,0.173
ANAPC5_Q9UJX4_203_EEEVSCSGPLSQK (UniProt Q9UJX4),-0.511,-0.804
ALDH18A1_P54886_606_CEYPAACNALETLLIHR (UniProt P54886),0.125,-0.514
AHSA1_O95433_56_CEVTEVSK (UniProt O95433),-0.108,0.37
ALAS1_P13196_544_NTEVCDELMSR (UniProt P13196),0.185,0.327
ALOX5_P09917_450_DLTYASLCFPEAIK (UniProt P09917),-0.0604,-0.0172
ALDH18A1_P54886_606+612_CEYPAACNALETLLIHR (UniProt P54886),0.202,-0.341
ALDH18A1_P54886_88_GDECGLALGR (UniProt P54886),-0.167,-0.808
AHCTF1_Q8WYP5_1261_CAVPVETEWLK (UniProt Q8WYP5),-0.538,-0.684
ALKBH8_Q96BT7_296_YLWTHGITCR (UniProt Q96BT7),-0.00127,-0.239
ANAPC2_Q9UJX6_557_FGEAPMHFCEVMLK (UniProt Q9UJX6),-0.0427,0.0673
AHCTF1_Q8WYP5_722_WNPDCLMIDGLVSQLGER (UniProt Q8WYP5),0.145,0.111
AKAP8L_Q9ULX6_487_KVEAAHCAACDLFIPMQFGIIQK (UniProt Q9ULX6),0.0426,-0.136
AHCY_P23526_421_QAQYLGMSCDGPFKPDHYRY (UniProt P23526),-0.14,-0.284
AKR1B1_P15121_299_VCALLSCTSHK (UniProt P15121),-0.208,-2.38

Target,probe-labelled cysteine peptide fold change (10 µM),probe-labelled cysteine peptide fold change (50 µM)
ALDH1L2_Q3SY69_472_TYDTINPTDGSTICK (UniProt Q3SY69),0.23,0.263
AHCYL1_O43865_392+395_NSCIVCNMGHSNTEIDVTSLR (UniProt O43865),-0.0155,-0.571
AK1_P00568_187_KVNAEGSVDSVFSQVCTHLDALK (UniProt P00568),-0.0662,-0.254
ALCAM_Q13740_313_CSLIDKK (UniProt Q13740),-0.211,-0.22
ALDH9A1_P49189_96_EREDEIATMECINNGK (UniProt P49189),-0.287,0.0957
ALDH3A2_P51648_425_HSFDTFSHQRPCLLK (UniProt P51648),-0.192,-0.43
ALS2_Q96Q42_1454_SFCTGK (UniProt Q96Q42),-0.119,-0.88
AHNAK_Q09666_108_EVFSSCSSEVVLSGDDEEYQR (UniProt Q09666),-0.0904,0.207
ANAPC2_Q9UJX6_421_VLDPSMVILEVACEPIRR (UniProt Q9UJX6),-0.115,0.0681
AHCYL1_O43865_292+293_QKFDNLYCCR (UniProt O43865),-0.0671,-0.96
AKR1B1_P15121_187_YKPAVNQIECHPYLTQEK (UniProt P15121),-0.131,-0.266
AHCY_P23526_195_FDNLYGCR (UniProt P23526),-0.0463,0.236
ALDH6A1_Q02252_86_AEMDAAIASCK (UniProt Q02252),-0.0464,-0.0142
ALDOA_P04075_339_RALANSLACQGK (UniProt P04075),-0.187,-0.104
ALDH16A1_Q8IZ83_249_KVAFCGAPEEGR (UniProt Q8IZ83),0.0423,-0.438
AIP_O00170_121+122_HCCGVAQMR (UniProt O00170),-0.298,-1.16
AGPS_O00116_404_YGSVAFPNFEQGVACLR (UniProt O00116),-0.0669,0.176
ANAPC7_Q9UJX3_451_TLGANAQTLTLLATVCLEDPVTQEK (UniProt Q9UJX3),0.139,0.314
ALAS1_P13196_263_VCGAVMDTLK (UniProt P13196),0.303,-0.0294
ALDH9A1_P49189_267_SPLIIFSDCDMNNAVK (UniProt P49189),0.208,0.2
